According to paper doi:10.1101/2022.03.06.483192:
Read-outs that look alike come from different tables or passages of the source. No constants are given. Whether binding was seen depends on the method and setting. Binding can be weak; no strength is given. For some of these results: In cells and extracts the contact can be indirect. For some of these results: Tags and fused reporters may be left off the sequences shown.

Protein sequences, listed by entry. Tags and fused reporters are not part of them. Lines headed by an entry give the natural chain unless they say otherwise; changes in a name come on top.
UniProt A1L190: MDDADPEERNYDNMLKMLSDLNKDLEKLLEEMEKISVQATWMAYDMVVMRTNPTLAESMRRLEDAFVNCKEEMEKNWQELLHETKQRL

Assays:
[1] = biological target: T1, SYCP1αN (UniProt Q15431); assay: SEC
T1 sequence: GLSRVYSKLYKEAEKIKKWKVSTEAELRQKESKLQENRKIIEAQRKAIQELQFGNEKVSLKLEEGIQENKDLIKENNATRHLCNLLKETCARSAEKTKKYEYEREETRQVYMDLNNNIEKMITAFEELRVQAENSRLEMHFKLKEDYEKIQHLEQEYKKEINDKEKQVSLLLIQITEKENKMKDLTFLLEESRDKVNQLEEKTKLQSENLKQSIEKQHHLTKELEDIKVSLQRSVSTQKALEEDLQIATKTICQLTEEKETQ

[2] = biological target: T2, SYCP1αNcore (UniProt Q15431); assay: SEC
T2 sequence: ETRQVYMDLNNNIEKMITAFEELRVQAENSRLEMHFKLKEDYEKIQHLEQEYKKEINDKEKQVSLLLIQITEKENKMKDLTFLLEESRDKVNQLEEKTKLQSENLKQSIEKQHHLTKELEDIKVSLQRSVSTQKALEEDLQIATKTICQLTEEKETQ

[3] = biological target: T2, SYCP1αNcore; assay: SEC; remark: listed apart in the source
[4] = biological target: T3, MBP-SYCP1αNcore (UniProt Q15431); assay: pull-down
T3 sequence: T2 sequence

[5] = biological target: T3, MBP-SYCP1αNcore; assay: pull-down; remark: listed apart in the source

binding [1] | binding [2] | binding [3] | binding [4] | binding [5] | Substance
binds | binds | binds |  |  | SYCE3 (from UniProt A1L190)
 |  |  | binds |  | His-SYCE3 P53Q (from UniProt A1L190)
 |  |  | binds | binds | His-SYCE3 (from UniProt A1L190)
 |  |  | binds |  | His-SYCE3 W41E Y44E (from UniProt A1L190)
